The assay concerns the target RON receptor tyrosine kinase (Homo sapiens (Human)) (UniProt Q04912). The assay can be described thus: RON receptor binding; assay not given.

Chains of the proteins cited; added tags and fusions are not shown. Lines headed by an entry give the natural chain unless they say otherwise; changes in a name come on top.
UniProt Q04912: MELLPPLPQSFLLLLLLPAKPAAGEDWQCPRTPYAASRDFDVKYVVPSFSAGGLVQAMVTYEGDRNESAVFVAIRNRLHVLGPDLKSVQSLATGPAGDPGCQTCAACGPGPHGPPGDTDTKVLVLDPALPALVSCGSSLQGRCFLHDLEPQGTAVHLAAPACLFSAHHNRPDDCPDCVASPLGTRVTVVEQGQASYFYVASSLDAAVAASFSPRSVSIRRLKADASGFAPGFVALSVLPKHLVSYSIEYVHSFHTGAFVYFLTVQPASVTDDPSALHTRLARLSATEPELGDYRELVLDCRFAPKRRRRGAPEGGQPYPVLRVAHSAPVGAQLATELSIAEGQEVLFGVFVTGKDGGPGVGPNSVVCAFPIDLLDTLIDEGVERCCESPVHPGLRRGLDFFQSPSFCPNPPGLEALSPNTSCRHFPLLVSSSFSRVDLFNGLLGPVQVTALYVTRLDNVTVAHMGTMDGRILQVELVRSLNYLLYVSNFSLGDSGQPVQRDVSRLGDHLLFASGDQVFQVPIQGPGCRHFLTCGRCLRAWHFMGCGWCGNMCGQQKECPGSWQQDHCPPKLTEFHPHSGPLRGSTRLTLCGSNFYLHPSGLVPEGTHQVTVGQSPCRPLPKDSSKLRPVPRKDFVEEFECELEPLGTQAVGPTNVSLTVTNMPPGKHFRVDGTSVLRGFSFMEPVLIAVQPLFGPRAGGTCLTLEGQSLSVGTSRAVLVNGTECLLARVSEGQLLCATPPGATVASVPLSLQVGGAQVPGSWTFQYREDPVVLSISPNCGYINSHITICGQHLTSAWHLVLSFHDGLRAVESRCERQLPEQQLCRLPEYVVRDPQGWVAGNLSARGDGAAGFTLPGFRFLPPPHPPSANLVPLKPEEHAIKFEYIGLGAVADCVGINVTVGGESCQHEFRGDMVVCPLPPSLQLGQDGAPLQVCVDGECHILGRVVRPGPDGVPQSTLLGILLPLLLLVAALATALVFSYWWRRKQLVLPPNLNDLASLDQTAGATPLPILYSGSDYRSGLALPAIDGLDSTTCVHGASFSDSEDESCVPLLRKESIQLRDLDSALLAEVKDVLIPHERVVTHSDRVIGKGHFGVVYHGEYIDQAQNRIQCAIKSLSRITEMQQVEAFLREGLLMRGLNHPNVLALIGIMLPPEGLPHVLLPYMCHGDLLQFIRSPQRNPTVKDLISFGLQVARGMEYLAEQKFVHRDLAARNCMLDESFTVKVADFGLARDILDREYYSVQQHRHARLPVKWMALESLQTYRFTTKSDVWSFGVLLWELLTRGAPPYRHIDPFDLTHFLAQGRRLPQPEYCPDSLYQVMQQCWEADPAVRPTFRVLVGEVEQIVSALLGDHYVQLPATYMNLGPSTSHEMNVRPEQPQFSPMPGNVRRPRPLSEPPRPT

Among the data in US20030073656A1 are binding values, retold here.

These are yes or no findings as the source states them, for the method shown. Some entries that bind do so weakly or less than the wild type.

B1: truncated HGFL lacking the 4th kringle domain (ΔK4) (ligand)
chain: QRSPLNDFQVLRGTELQHLLHAVVPGPWQEDVADAEECAGRCGPLMDCRAFHYNVSSHGCQLLPWTQHSPHTRLRRSGRCDLFQKKDYVRTCIMNNGVGYRGTMATTVGGLPCQAWSHKFPNDHKYTPTLRNGLEENFCRNPDGDPGGPWCYTTDPAVRFQSCGIKSCREAACVWCNGEEYRGAVDRTESGRECQRWDLQHPHQHPFEPGKFLDQGLDDNYCRNPDGSERPWCYTTDPQIEREFCDLPRCGSEAQPRQEATTVSCFRGKGEGYRGTANTTTAGVPCQRWDAQIPHQHRFTPEKYACKDLRENFCRNPDGSEAPWCFTLRPGMRAAFCYQIRRCTDDVRPQDADDQPPSILDPPDQVQFEKCGKRVDRLDQRRSKLRVVGGHPGNSPWTVSLRNRQGQHFCGGSLVKEQWILTARQCFSSCHMPLTGYEVWLGTLFQNPQHGEPSLQRVPVAKMVCGPSGSQLVLLKLERSVTLNQRVALICLPPEWYVVPPGTKCEIAGWGETKGTGNDTVLNVALLNVISNQECNIKHRGRVRESEMCTEGLLAPVGACEGDYGGPLACFTHNCWVLEGIIIPNRVCARSRWPAVFTRVSVFVDWIHKVMRLG
As for B1, the binding entry is “binds”.

B2: truncated HGFL lacking the 3rd kringle domain (ΔK3) (ligand)
chain: QRSPLNDFQVLRGTELQHLLHAVVPGPWQEDVADAEECAGRCGPLMDCRAFHYNVSSHGCQLLPWTQHSPHTRLRRSGRCDLFQKKDYVRTCIMNNGVGYRGTMATTVGGLPCQAWSHKFPNDHKYTPTLRNGLEENFCRNPDGDPGGPWCYTTDPAVRFQSCGIKSCREAACVWCNGEEYRGAVDRTESGRECQRWDLQHPHQHPFEPGKFLDQGLDDNYCRNPDGSERPWCYTTDPQIEREFCDLPRCGSEAQPRQEATTVSTDDVRPQDCYHGAGEQYRGTVSKTRKGVQCQRWSAETPHKPQFTFTSEPHAQLEENFCRNPDGDSHGPWCYTMDPRTPFDYCALRRCADDQPPSILDPPDQVQFEKCGKRVDRLDQRRSKLRVVGGHPGNSPWTVSLRNRQGQHFCGGSLVKEQWILTARQCFSSCHMPLTGYEVWLGTLFQNPQHGEPSLQRVPVAKMVCGPSGSQLVLLKLERSVTLNQRVALICLPPEWYVVPPGTKCEIAGWGETKGTGNDTVLNVALLNVISNQECNIKHRGRVRESEMCTEGLLAPVGACEGDYGGPLACFTHNCWVLEGIIIPNRVCARSRWPAVFTRVSVFVDWIHKVMRLG
Take B2: the binding result is “binds”.

B3: truncated HGFL lacking the 2nd kringle domain (ΔK2) (ligand)
chain: QRSPLNDFQVLRGTELQHLLHAVVPGPWQEDVADAEECAGRCGPLMDCRAFHYNVSSHGCQLLPWTQHSPHTRLRRSGRCDLFQKKDYVRTCIMNNGVGYRGTMATTVGGLPCQAWSHKFPNDHKYTPTLRNGLEENFCRNPDGDPGGPWCYTTDPAVRFQSCGIKSCGSEAQPRQEATTVSCFRGKGEGYRGTANTTTAGVPCQRWDAQIPHQHRFTPEKYACKDLRENFCRNPDGSEAPWCFTLRPGMRAAFCYQIRRCTDDVRPQDCYHGAGEQYRGTVSKTRKGVQCQRWSAETPHKPQFTFTSEPHAQLEENFCRNPDGDSHGPWCYTMDPRTPFDYCALRRCADDQPPSILDPPDQVQFEKCGKRVDRLDQRRSKLRVVGGHPGNSPWTVSLRNRQGQHFCGGSLVKEQWILTARQCFSSCHMPLTGYEVWLGTLFQNPQHGEPSLQRVPVAKMVCGPSGSQLVLLKLERSVTLNQRVALICLPPEWYVVPPGTKCEIAGWGETKGTGNDTVLNVALLNVISNQECNIKHRGRVRESEMCTEGLLAPVGACEGDYGGPLACFTHNCWVLEGIIIPNRVCARSRWPAVFTRVSVFVDWIHKVMRLG
Regarding B3, the binding entry was “binds”.
